Some of the results follow.
Legend:
Experiment in all cases: log2 fold change, soluble protein after heating vs DMSO (PISA); higher = thermal stabilisation; K562 cells, 10 uM, 30 min; active = over 0.2 and 3.5 SD of the protein, either way, in both replicates (recomputed)
erlotinib = compound: C#Cc1cccc(Nc2ncnc3cc(OCCOC)c(OCCOC)cc23)c1 [erlotinib]
How it was run: (§1)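 K562 cells at 2×10^6 cells/mL were exposed to 10 μM compound for 30 min, then aliquots were heated for 3 min across 48°C-58°C, pooled, and extracted in PBS containing 0.5% NP-40 at 4°C. The supernatant after 21,000xg for 90 min was taken as soluble protein and measured by TMTpro 16plex LC-MS/MS with channel sums equalised. Thermal stability is reported relative to control samples, with values from duplicates. Fold changes are given on a log2 scale.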

Chains of the proteins cited; added tags and fusions are not shown. Lines headed by an entry give the natural chain unless they say otherwise; changes in a name come on top.
UniProt O75695: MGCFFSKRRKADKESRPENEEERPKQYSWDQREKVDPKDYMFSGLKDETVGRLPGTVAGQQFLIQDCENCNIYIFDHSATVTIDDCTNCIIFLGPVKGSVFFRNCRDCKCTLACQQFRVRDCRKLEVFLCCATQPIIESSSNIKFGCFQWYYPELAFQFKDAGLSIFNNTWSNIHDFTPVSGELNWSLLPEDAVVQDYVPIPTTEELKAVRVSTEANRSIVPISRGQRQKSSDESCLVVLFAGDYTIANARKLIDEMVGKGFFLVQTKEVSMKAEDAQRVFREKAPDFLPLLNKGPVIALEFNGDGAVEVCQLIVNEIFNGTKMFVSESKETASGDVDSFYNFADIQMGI
UniProt Q96BH1: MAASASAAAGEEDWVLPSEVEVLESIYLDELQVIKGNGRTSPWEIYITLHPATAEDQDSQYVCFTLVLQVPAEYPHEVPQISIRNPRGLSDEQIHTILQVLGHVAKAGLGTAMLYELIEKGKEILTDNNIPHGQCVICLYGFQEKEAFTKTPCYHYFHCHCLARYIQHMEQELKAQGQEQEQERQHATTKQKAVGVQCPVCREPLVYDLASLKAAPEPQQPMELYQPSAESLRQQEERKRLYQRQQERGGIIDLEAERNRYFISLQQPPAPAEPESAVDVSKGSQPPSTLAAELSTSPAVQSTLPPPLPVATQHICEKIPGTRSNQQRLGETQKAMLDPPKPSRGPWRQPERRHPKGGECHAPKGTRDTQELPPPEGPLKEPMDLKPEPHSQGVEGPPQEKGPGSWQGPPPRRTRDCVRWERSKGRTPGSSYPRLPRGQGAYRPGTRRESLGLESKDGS
UniProt Q7L523, whole entry, looked up: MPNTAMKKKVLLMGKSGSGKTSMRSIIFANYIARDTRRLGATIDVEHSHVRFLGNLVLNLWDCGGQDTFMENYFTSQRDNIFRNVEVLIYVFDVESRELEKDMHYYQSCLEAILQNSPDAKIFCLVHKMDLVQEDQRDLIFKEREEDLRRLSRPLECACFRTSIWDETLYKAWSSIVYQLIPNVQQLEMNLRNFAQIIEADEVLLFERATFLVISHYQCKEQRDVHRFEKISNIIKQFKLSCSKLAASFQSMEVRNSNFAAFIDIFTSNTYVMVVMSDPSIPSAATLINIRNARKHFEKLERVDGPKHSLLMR
UniProt P31350, whole entry, looked up: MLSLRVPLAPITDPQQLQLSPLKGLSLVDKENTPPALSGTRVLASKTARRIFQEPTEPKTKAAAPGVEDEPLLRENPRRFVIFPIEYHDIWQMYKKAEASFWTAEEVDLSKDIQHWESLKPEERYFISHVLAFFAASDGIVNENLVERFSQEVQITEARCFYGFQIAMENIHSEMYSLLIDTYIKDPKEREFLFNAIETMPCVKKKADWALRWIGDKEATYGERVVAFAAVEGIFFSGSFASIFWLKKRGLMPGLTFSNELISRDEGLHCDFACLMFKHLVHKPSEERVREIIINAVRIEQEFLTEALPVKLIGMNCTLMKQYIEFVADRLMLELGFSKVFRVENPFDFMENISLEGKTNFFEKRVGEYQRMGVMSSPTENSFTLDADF
UniProt Q7LG56, whole entry, looked up: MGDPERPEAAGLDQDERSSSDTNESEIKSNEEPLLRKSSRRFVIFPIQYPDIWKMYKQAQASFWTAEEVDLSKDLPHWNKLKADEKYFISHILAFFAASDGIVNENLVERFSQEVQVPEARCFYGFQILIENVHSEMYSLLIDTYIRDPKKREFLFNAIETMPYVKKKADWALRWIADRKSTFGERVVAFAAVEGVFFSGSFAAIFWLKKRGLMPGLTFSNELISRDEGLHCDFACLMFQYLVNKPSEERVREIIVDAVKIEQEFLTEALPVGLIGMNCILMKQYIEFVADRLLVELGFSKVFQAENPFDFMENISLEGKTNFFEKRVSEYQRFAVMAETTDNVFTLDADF
UniProt Q8IZ73: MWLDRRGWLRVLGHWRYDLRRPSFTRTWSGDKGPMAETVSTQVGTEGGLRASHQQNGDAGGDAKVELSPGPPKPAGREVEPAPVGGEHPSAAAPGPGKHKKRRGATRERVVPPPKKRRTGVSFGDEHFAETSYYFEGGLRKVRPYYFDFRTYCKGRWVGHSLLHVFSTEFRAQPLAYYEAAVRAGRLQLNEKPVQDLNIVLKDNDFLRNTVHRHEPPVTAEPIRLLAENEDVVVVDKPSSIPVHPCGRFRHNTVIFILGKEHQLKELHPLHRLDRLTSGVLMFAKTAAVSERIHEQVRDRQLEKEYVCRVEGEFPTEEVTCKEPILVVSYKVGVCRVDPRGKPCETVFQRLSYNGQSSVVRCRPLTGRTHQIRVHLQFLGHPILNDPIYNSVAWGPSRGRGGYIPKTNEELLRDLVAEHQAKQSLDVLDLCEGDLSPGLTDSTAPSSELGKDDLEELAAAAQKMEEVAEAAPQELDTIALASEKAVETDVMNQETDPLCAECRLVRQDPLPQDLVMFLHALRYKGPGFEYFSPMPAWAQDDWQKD
UniProt P60602: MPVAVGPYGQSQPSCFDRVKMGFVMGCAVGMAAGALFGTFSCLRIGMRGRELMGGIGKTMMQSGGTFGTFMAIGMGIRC
UniProt Q99942: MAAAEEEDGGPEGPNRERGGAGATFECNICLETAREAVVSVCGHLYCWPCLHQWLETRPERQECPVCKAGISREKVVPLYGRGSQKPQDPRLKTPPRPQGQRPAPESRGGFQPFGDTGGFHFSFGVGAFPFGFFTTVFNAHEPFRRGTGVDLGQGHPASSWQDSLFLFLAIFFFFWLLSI
UniProt O60942: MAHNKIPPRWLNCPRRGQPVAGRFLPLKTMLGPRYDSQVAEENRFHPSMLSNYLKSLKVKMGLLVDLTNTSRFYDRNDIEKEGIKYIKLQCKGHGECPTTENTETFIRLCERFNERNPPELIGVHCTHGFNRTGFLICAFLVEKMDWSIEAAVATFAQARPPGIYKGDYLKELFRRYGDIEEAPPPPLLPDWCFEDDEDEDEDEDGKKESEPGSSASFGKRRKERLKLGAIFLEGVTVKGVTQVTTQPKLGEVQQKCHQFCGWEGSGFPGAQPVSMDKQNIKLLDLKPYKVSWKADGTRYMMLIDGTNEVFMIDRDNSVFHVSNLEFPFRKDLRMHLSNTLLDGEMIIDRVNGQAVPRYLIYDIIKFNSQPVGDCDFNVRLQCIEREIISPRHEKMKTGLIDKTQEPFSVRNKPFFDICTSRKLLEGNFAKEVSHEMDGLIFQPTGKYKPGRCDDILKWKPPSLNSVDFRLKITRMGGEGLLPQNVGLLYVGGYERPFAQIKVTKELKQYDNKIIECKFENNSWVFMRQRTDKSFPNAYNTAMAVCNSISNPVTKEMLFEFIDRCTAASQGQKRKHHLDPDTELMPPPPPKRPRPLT
UniProt Q9P2E9: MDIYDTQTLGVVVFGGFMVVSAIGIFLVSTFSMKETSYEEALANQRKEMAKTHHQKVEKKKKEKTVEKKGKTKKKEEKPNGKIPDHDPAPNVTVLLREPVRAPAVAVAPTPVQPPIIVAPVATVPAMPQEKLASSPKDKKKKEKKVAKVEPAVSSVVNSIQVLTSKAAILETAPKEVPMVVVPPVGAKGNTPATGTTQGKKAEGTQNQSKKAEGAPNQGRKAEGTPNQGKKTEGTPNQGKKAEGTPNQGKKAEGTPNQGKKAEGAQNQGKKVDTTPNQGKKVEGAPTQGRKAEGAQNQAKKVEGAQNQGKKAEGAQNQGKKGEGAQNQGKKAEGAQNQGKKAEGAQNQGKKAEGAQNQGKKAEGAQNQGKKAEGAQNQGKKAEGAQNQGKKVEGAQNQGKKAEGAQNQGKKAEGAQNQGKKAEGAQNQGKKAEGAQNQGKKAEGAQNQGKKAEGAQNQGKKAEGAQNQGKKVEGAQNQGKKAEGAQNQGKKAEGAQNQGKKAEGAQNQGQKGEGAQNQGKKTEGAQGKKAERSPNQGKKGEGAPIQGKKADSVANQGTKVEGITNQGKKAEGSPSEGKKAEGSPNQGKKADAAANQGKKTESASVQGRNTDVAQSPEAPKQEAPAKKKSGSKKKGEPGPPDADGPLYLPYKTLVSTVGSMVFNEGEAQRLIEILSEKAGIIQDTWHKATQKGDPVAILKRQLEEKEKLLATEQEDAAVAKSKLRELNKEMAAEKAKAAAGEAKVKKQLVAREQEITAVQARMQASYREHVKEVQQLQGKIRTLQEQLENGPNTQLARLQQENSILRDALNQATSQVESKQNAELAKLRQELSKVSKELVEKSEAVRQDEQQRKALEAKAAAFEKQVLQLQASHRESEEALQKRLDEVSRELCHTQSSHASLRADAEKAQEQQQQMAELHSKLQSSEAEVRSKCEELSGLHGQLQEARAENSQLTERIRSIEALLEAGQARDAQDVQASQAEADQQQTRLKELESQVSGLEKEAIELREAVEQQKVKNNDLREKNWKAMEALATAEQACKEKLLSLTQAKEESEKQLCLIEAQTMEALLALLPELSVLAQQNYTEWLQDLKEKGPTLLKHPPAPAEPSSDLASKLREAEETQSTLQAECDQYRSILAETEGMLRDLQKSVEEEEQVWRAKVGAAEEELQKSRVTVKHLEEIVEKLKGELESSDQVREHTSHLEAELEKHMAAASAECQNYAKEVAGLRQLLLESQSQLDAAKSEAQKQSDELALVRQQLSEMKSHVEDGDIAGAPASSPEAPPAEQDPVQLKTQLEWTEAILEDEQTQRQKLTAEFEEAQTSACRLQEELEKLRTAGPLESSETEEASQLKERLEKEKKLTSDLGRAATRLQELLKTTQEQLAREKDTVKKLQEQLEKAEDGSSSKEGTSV
UniProt Q5VT52: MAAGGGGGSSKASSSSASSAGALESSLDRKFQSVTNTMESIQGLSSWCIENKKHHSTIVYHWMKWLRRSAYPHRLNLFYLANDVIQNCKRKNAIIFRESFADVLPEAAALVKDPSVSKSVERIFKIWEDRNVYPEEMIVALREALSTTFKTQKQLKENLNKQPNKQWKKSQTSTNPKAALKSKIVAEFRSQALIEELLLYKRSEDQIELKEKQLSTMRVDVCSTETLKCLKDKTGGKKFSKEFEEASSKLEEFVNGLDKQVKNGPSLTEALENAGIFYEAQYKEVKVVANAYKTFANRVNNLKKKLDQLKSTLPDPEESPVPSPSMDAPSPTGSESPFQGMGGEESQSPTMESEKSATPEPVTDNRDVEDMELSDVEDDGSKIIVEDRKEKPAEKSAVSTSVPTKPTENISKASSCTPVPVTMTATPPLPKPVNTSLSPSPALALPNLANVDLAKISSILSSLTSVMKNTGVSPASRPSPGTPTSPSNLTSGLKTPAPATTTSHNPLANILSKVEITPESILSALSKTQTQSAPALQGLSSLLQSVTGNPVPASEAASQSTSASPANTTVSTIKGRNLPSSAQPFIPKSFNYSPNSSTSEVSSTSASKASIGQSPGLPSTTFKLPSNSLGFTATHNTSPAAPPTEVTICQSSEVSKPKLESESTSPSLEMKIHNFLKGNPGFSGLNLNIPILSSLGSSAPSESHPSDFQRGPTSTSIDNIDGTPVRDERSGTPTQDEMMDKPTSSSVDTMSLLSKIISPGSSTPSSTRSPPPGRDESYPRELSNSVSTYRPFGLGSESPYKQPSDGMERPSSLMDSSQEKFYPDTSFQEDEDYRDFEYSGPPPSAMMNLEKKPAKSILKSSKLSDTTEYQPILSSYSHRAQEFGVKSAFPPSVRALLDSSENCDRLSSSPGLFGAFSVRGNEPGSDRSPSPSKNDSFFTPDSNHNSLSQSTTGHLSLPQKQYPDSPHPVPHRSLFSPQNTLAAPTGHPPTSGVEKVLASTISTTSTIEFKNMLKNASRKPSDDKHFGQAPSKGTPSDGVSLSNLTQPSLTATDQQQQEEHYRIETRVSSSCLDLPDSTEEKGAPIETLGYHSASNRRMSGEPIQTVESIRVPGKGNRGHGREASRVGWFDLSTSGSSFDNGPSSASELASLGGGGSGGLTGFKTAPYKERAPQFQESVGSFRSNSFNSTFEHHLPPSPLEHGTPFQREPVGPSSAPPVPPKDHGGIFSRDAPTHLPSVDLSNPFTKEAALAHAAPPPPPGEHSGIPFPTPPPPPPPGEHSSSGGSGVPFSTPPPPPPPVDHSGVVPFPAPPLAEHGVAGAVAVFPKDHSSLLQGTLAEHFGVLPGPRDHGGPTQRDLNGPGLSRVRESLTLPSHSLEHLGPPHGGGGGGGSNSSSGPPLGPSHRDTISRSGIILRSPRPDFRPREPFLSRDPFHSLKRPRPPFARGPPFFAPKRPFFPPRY

[1] = compound: C/C(=N\NC(=O)C1=CC(=CC=C1)S(=O)(=O)N2CCOCC2)/C3=C(C=CC(=C3)Cl)O
How it was run: as §1

[2] = compound: C1=CC(=C(C=C1Cl)C2=NC3=NC=CN=C3C(=N2)NC4=CC=NC=C4)F
How it was run: as §1

[3] = compound: C1=CC(=CC=C1C2=NC3=C(N2)C=C(C=C3)C(=O)N)OC4=CC=C(C=C4)Cl
How it was run: as §1

[4] = compound: C1=CC2=C(C=CC(=C2)/C=C\3/C(=O)NC(=NCC4=CC=CS4)S3)N=C1
How it was run: as §1

[5] = compound: C1=CC2=NC=CN=C2C=C1/C=C/3\C(=O)NC(=O)S3
How it was run: as §1

[6] = compound: C1=CC=C(C=C1)C2=NC(=C(N2)C3=CC=NC=C3)C4=CC(=C(C=C4)Cl)O
How it was run: as §1

[7] = compound: C1=CC=C2C(=C1)C3=NNC4=CC=CC(=C43)C2=O
How it was run: as §1

[8] = compound: C1CCN(C1)C(=O)NC2=CC=CC(=C2)NC3=NC=C(C(=N3)NCCC4=CN=CN4)Br
How it was run: as §1

[9] = compound: C1CN(CCC1(CC2=CC=C(C=C2)Cl)N)C3=NC=NC4=C3C=CN4
How it was run: as §1

Measured: log2 fold change

RPL37A (UniProt P61513)
inactive: erlotinib -0.611 | [1] -0.28 | [2] -0.986 | [3] 0.128 | [4] -0.087 | [5] -0.098 | [6] -0.078 | [7] 0.047 | [8] 0.016 | [9] -0.374

RPL5 (UniProt P46777)
inactive: erlotinib -0.095 | [1] -0.219 | [2] -0.434 | [3] -0.03 | [4] -0.137 | [5] -0.026 | [6] -0.056 | [7] -0.035 | [8] 0.031 | [9] -0.121

RPS8 (UniProt P62241)
inactive: erlotinib -0.164 | [1] -0.152 | [2] -0.526 | [3] 0.063 | [4] -0.138 | [5] -0.039 | [6] 0.023 | [7] -0.008 | [8] 0.063 | [9] -0.182

RP2 (UniProt O75695)
inactive: erlotinib -0.01 | [1] 0.02 | [2] -0.008 | [3] 0.009 | [4] 0.086 | [5] 0.084 | [6] -0.009 | [7] -0.055 | [8] 0 | [9] -0.003

RPL15 (UniProt P61313)
inactive: erlotinib -0.577 | [1] -0.487 | [2] -1.23 | [3] 0.078 | [4] -0.266 | [5] -0.006 | [6] -0.014 | [7] 0.003 | [8] 0.054 | [9] -0.343

RPLP0 (UniProt P05388)
inactive: erlotinib -0.363 | [1] -0.335 | [2] -1.03 | [3] 0.046 | [4] -0.215 | [5] -0.006 | [6] -0.106 | [7] -0.004 | [8] -0.002 | [9] -0.33

RPL31 (UniProt P62899)
inactive: erlotinib -0.145 | [1] -0.174 | [2] -0.444 | [3] 0.055 | [4] -0.052 | [5] -0.02 | [6] -0.047 | [7] -0.011 | [8] 0.087 | [9] -0.215

RPL17 isoform 3 (UniProt P18621)
inactive: erlotinib -0.281 | [1] -0.163 | [2] -0.607 | [3] 0.043 | [4] -0.22 | [5] -0.088 | [6] 0.075 | [7] 0.024 | [8] 0.079 | [9] -0.232

RNF25 (UniProt Q96BH1)
inactive: erlotinib 0.002 | [1] 0.026 | [2] 0.043 | [3] 0.039 | [4] -0.048 | [5] 0.026 | [6] 0.058 | [7] -0.015 | [8] -0.06 | [9] -0.022

RRAGA (UniProt Q7L523)
inactive: erlotinib -0.132 | [1] 0.149 | [2] 0.116 | [3] 0.203 | [4] -0.27 | [5] 0.019 | [6] 0.308 | [7] -0.083 | [8] -0.125 | [9] -0.028

RPL26 (UniProt P61254)
inactive: erlotinib -0.286 | [1] -0.107 | [2] -0.765 | [3] 0.138 | [4] -0.293 | [5] -0.048 | [6] -0.287 | [7] 0.011 | [8] -0.156 | [9] -0.285

RRM2 isoform 2 (UniProt P31350)
inactive: erlotinib -0.026 | [1] 0.014 | [2] 0.035 | [3] 0.013 | [4] -0.017 | [5] 0.02 | [6] 0.031 | [7] 0.038 | [8] -0.03 | [9] 0.014

RRM2B isoform 6 (UniProt Q7LG56)
inactive: erlotinib -0.015 | [1] 0 | [2] 0.008 | [3] 0.012 | [4] 0.099 | [5] 0.008 | [6] -0.094 | [7] 0.022 | [8] -0.009 | [9] 0.043

RPS29 (UniProt P62273)
inactive: erlotinib -0.034 | [1] -0.161 | [2] -0.011 | [3] 0.111 | [4] -0.178 | [5] -0.101 | [6] -0.059 | [7] 0.083 | [8] 0.135 | [9] -0.181

RPS20 isoform 2 (UniProt P60866)
inactive: erlotinib -0.129 | [1] -0.082 | [2] -0.171 | [3] 0.023 | [4] -0.004 | [5] -0.068 | [6] -0.04 | [7] -0.025 | [8] 0.05 | [9] -0.159

RPL22 (UniProt P35268)
inactive: erlotinib -0.107 | [1] -0.111 | [2] -0.419 | [3] 0.024 | [4] -0.027 | [5] -0.037 | [6] -0.11 | [7] 0.009 | [8] 0.046 | [9] -0.126

RPUSD2 (UniProt Q8IZ73)
inactive: erlotinib 0 | [1] -0.015 | [2] -0.007 | [3] 0.006 | [4] 0.011 | [5] -0.019 | [6] 0.009 | [7] 0 | [8] -0.01 | [9] 0.019

ROMO1 (UniProt P60602)
inactive: erlotinib 0.016 | [1] -0.092 | [2] 0.045 | [3] -0.01 | [4] -0.009 | [5] 0.018 | [6] 0.008 | [7] 0.003 | [8] 0.039 | [9] 0.001

RPL11 (UniProt P62913)
inactive: erlotinib -0.287 | [1] -0.348 | [2] -0.919 | [3] 0.01 | [4] -0.232 | [5] -0.045 | [6] -0.056 | [7] -0.031 | [8] 0.063 | [9] -0.344

RPL30 (UniProt P62888)
inactive: erlotinib -0.407 | [1] -0.32 | [2] -1.08 | [3] 0.087 | [4] -0.168 | [5] -0.047 | [6] -0.112 | [7] 0.069 | [8] 0.006 | [9] -0.394

RNF5 (UniProt Q99942)
inactive: erlotinib 0.107 | [1] -0.001 | [2] -0.016 | [3] 0.039 | [4] 0.066 | [5] 0.058 | [6] 0.108 | [7] -0.034 | [8] -0.016 | [9] -0.007

RNGTT (UniProt O60942)
inactive: erlotinib -0.023 | [1] 0.08 | [2] 0 | [3] 0.045 | [4] 0.153 | [5] -0.011 | [6] 0.09 | [7] 0.016 | [8] -0.043 | [9] 0.05

RRBP1 (UniProt Q9P2E9)
inactive: erlotinib 0.01 | [1] -0.178 | [2] -0.678 | [3] 0.109 | [4] -0.133 | [5] 0.054 | [6] -0.09 | [7] 0 | [8] 0.131 | [9] -0.048

RPS16 (UniProt P62249)
inactive: erlotinib -0.166 | [1] -0.108 | [2] -0.258 | [3] 0.049 | [4] -0.075 | [5] -0.043 | [6] -0.049 | [7] 0.002 | [8] 0.025 | [9] -0.2

RPS27L (UniProt Q71UM5)
inactive: erlotinib -0.12 | [1] -0.002 | [2] -0.14 | [3] 0.059 | [4] -0.039 | [5] -0.062 | [6] 0.086 | [7] -0.053 | [8] 0.054 | [9] -0.146

RPL34 (UniProt P49207)
inactive: erlotinib -0.425 | [1] -0.398 | [2] -1.29 | [3] 0.058 | [4] -0.252 | [5] -0.067 | [6] -0.121 | [7] 0.008 | [8] 0.02 | [9] -0.366

RPL27 (UniProt P61353)
inactive: erlotinib -0.444 | [1] -0.234 | [2] -0.953 | [3] 0.039 | [4] -0.305 | [5] -0.012 | [6] 0.086 | [7] 0.084 | [8] -0.006 | [9] -0.311

RPRD2 (UniProt Q5VT52)
inactive: erlotinib 0.211 | [1] -0.012 | [2] -0.035 | [3] -0.093 | [4] -0.059 | [5] -0.034 | [6] 0.186 | [7] -0.133 | [8] -0.096 | [9] -0.206

Reprinted at random: 2 records from the list
RPRD2 (UniProt Q5VT52)
inactive: erlotinib 0.211 | [1] -0.012 | [2] -0.035 | [3] -0.093 | [4] -0.059 | [5] -0.034 | [6] 0.186 | [7] -0.133 | [8] -0.096 | [9] -0.206

RPS27L (UniProt Q71UM5)
inactive: erlotinib -0.12 | [1] -0.002 | [2] -0.14 | [3] 0.059 | [4] -0.039 | [5] -0.062 | [6] 0.086 | [7] -0.053 | [8] 0.054 | [9] -0.146

Going on with the list:

RPL35A (UniProt P18077)
inactive: erlotinib -0.466 | [1] -0.465 | [2] -1.14 | [3] 0.06 | [4] -0.27 | [5] -0.065 | [6] -0.117 | [7] -0.008 | [8] 0.121 | [9] -0.291

RPL39P5 (UniProt Q59GN2)
inactive: erlotinib -0.181 | [1] -0.125 | [2] -0.496 | [3] -0.017 | [4] -0.183 | [5] -0.013 | [6] 0.021 | [7] 0.032 | [8] 0.101 | [9] -0.06

From the supplement of paper PMC10849652
